Data: patent US8569573B2 (priority 2007, dated 2013)
At least one structure is not confirmed: it was looked up by name or label, or the drawing left a doubt.

System: human drug metabolism genes
Experiment: Induction of mRNAs involved in drug metabolism in cultured hepatocytes from chimeric mice (real-time PCR)
Details: FIG. 7
From the text: The basal expression and induction of human liver specific genes in chimeric mice was examined. […] Primers, obtained from Applied Biosystems, were specific for human CYP1A1 (Hs00153120_m1), CYP1A2 (Hs00167927_m1), CYP3A4 (Hs00430021_m1), CYP3A7 (Hs00426361_a1), CYP2B6 (Hs00167937_g1), CYP2D6 (Hs00164385_a1), Multidrug resistance associated protein MRP2 (Hs00166123_m1), Bile Salt export Pump BSEP, (Hs00184829_m1), CAR (Hs00231959_m1) Albumin (Hs00609411_m1), HNF4α (Hs00230853_m1), Cyclophillin (Hs99999904_m1) and mouse actin (Ma00607939_s1).
Cultures of isolated hepatocytes were established and exposed to prototypical inducers of the cytochrome P450 genes. […] In addition to the mRNA expression levels of human drug metabolism genes, the enzymatic activity of the human CYP1A and 3A family members were measured. Ethoxyresorufin-O-deethylase activity (EROD) is known to be mediated by CYP1A1 and 1A2 in human liver.

## CCC1(c2ccccc2)C(=O)NC(=O)NC1=O [PB, phenobarbital]
  pattern of genes induced: as expected from normal human cells
